This is one part of the list. Single values are uncertain, as repeats are few or missing.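 Cells were imaged in 1,536-well plates, and nuclei stained with an antibody against cleaved PARP were counted against all DNA-stained nuclei to give the apoptosis fraction. Screening doses were chosen to leave most cells alive, and resting and induced cleaved-PARP levels differ strongly between cell lines.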
Assays:
Experiment in all cases: cleaved PARP positive nuclei fraction relative to DMSO control; melanoma cells; higher = more apoptosis
Details in all cases: library dose: low library concentration; 72 h
501Mel = test system: 501Mel
A101D = test system: A101D
A2058 = test system: A2058
C32 = test system: C32
CBRC008 = test system: CBRC008 (line from a melanoma biopsy)
CBRC014 = test system: CBRC014 (line from a melanoma biopsy)
CBRC016 = test system: CBRC016 (line from a melanoma biopsy)
CBRC017 = test system: CBRC017 (line from a melanoma biopsy)
A375 = test system: A375
CBRC013 = test system: CBRC013 (line from a melanoma biopsy)

| Compound | cleaved PARP positive nuclei fraction (501Mel) | cleaved PARP positive nuclei fraction (A101D) | cleaved PARP positive nuclei fraction (A2058) | cleaved PARP positive nuclei fraction (C32) | cleaved PARP positive nuclei fraction (CBRC008) | cleaved PARP positive nuclei fraction (CBRC014) | cleaved PARP positive nuclei fraction (CBRC016) | cleaved PARP positive nuclei fraction (CBRC017) | cleaved PARP positive nuclei fraction (A375) | cleaved PARP positive nuclei fraction (CBRC013) |
| --- | --- | --- | --- | --- | --- | --- | --- | --- | --- | --- |
| Cn1cc(C2=C(c3cn(C4CCN(Cc5ccccn5)CC4)c4ccccc34)C(=O)NC2=O)c2ccccc21 [Enzastaurin] + O=C1NC(=O)/C(=C/c2ccc(-c3ccc(F)cc3O)o2)S1 [AS252424] (first compound 0.8 µM, partner dose 1 µM) | 35.7% | 41.8% | 59.4% | 41.3% | 120% | 118% | 106% | 102% | – | – |
| Cn1cc(C2=C(c3cn(C4CCN(Cc5ccccn5)CC4)c4ccccc34)C(=O)NC2=O)c2ccccc21 [Enzastaurin] + COc1ccc(-c2ccc3c(N4CCOCC4)nc(N4C[C@@H](C)O[C@@H](C)C4)nc3n2)cc1CO [KU0063794] (first compound 0.8 µM, partner dose 0.02 µM) | 70.6% | 28.1% | 41.6% | 169% | 107% | 137% | 55.4% | 81.1% | – | – |
| COc1cc([C@@H]2c3cc4c(cc3[C@@H](O[C@@H]3O[C@@H]5CO[C@@H](C)O[C@H]5[C@H](O)[C@H]3O)[C@H]3COC(=O)[C@H]23)OCO4)cc(OC)c1O [etoposide] + Cc1cc(SCc2sc(-c3ccc(C(F)(F)F)c(F)c3)nc2C)ccc1OCC(=O)O [GW0742] (first compound 0.02 µM, partner dose 2 µM) | 56.3% | 8.13% | 96.9% | 35.5% | 50.2% | 77.1% | 81% | 176% | – | – |
| OCc1c[nH]c2ccccc12 [Indole-3-carbinol] + C/C(O)=C(\C#N)C(=O)Nc1cc(Br)ccc1Br [LFM-A13] (first compound 0.8 µM, partner dose 2 µM) | 76.7% | 22.1% | 47.7% | 392% | 183% | 115% | 373% | 173% | – | – |
| Cc1cc(Nc2cc(N3CCN(C)CC3)nc(Sc3ccc(NC(=O)C4CC4)cc3)n2)n[nH]1 [Tozasertib] + O=C(Oc1ccc([N+](=O)[O-])cc1)N1CCC(C(O)(c2ccc3c(c2)OCO3)c2ccc3c(c2)OCO3)CC1 [JZL184] (first compound 0.006 µM, partner dose 1 µM) | 36.2% | 19.6% | 54.5% | 225% | 285% | 102% | 36% | 69.5% | – | – |
| N.N.[Cl][Pt][Cl] [cisplatin] + NCC(=O)Nc1ccc(-n2nc(C(F)(F)F)cc2-c2ccc3c(ccc4ccccc43)c2)cc1 [OSU03012] (first compound 1.6 µM, partner dose 1 µM) | – | 89.7% | 133% | 43% | 199% | 89.5% | 123% | 98.4% | 102% | 70.9% |
| O=c1[nH]nc(Sc2ncc([N+](=O)[O-])s2)n1-c1ccc2c(c1)OCCO2 + C/C(O)=C(\C#N)C(=O)Nc1cc(Br)ccc1Br [LFM-A13] (first compound 0.2 µM, partner dose 2 µM) | 124% | 8.98% | 311% | 79.3% | 48% | 106% | 36.6% | 97.6% | – | – |
| N.N.[Cl][Pt][Cl] [cisplatin] + COC(=O)c1sccc1S(=O)(=O)Nc1ccc(Nc2ccccc2)cc1OC [GSK0660] (first compound 1.6 µM, partner dose 1 µM) | 56.6% | 45.7% | 133% | 68.4% | 201% | 74.3% | 169% | 125% | – | – |
| CC(=O)O[C@@]12CO[C@@H]1C[C@H](O)[C@@]1(C)C(=O)[C@H](O)C3=C(C)[C@@H](OC(=O)[C@H](O)[C@@H](NC(=O)OC(C)(C)C)c4ccccc4)C[C@@](O)([C@@H](OC(=O)c4ccccc4)[C@H]21)C3(C)C [Docetaxel] + C/C(O)=C(\C#N)C(=O)Nc1cc(Br)ccc1Br [LFM-A13] (first compound 0.0001 µM, partner dose 2 µM) | 82.9% | 32.1% | 2590% | 114% | 210% | 176% | 197% | 171% | – | – |
| C[C@]1(O)C[C@@H](c2nc(-c3ccc4ccc(-c5ccccc5)nc4c3)c3c(N)nccn32)C1 + C/C(O)=C(\C#N)C(=O)Nc1cc(Br)ccc1Br [LFM-A13] (first compound 0.4 µM, partner dose 2 µM) | 100% | 70.7% | 165% | 40.5% | 361% | 118% | 40.6% | 95.9% | – | – |
| N.N.[Cl][Pt][Cl] [cisplatin] + CCc1ccc(CCOc2ccc(CC3SC(=O)NC3=O)cc2)nc1 [pioglitazone] (first compound 1.6 µM, partner dose 2 µM) | 161% | 63.2% | 76.7% | 78.6% | 4580% | 826% | 3160% | 2670% | – | – |

An excerpt from the list above, as a working copy:

| Compound | cleaved PARP positive nuclei fraction (501Mel) | cleaved PARP positive nuclei fraction (A101D) | cleaved PARP positive nuclei fraction (A2058) | cleaved PARP positive nuclei fraction (C32) | cleaved PARP positive nuclei fraction (CBRC008) | cleaved PARP positive nuclei fraction (CBRC014) | cleaved PARP positive nuclei fraction (CBRC016) | cleaved PARP positive nuclei fraction (CBRC017) | cleaved PARP positive nuclei fraction (A375) | cleaved PARP positive nuclei fraction (CBRC013) |
| --- | --- | --- | --- | --- | --- | --- | --- | --- | --- | --- |
| C[C@]1(O)C[C@@H](c2nc(-c3ccc4ccc(-c5ccccc5)nc4c3)c3c(N)nccn32)C1 + C/C(O)=C(\C#N)C(=O)Nc1cc(Br)ccc1Br [LFM-A13] (first compound 0.4 µM, partner dose 2 µM) | 100% | 70.7% | 165% | 40.5% | 361% | 118% | 40.6% | 95.9% | – | – |
| N.N.[Cl][Pt][Cl] [cisplatin] + CCc1ccc(CCOc2ccc(CC3SC(=O)NC3=O)cc2)nc1 [pioglitazone] (first compound 1.6 µM, partner dose 2 µM) | 161% | 63.2% | 76.7% | 78.6% | 4580% | 826% | 3160% | 2670% | – | – |

From the supplement of paper PMC4604168 (melanoma cell lines)
